Test results reported in PubChem BioAssay AID445 (National Center for Advancing Translational Sciences (NCATS), 2006).
Some of the results follow. Shown are side measurements of this screen, not its main read-out; they come without a call. The list favours compounds with an active or inconclusive main result. The note in brackets gives the kind of curve behind each potency; many fits are weak.

Assay: IkB Signaling
Details: ABC-DLBCL IkBa-CBG/CBR dual luciferase ratio (green luciferase fused to IkBa over red control in OCI-Ly3 lymphoma cells), 4 h; measured here: control luc red channel unless noted
Summary of the method: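 Curves were fitted separately to fusion (green), unfused (red) and ratio luminescence, then classed by r2, magnitude and activity. Cells: OCI-Ly3, 4 h compound plus doxycycline at 37C; 10 uM MG-132 defined full response.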

Q: Which AC50 does the source give for CCOC(=O)c1c(-c2ccc(C)cc2C)csc1NC(=O)c1ccccc1Cl here?
A: Its AC50 is 15.8 µM [falling, partial curve].

Q: With NC(=O)C1CCN(C(=O)c2ccc3c(c2)N(Cc2cccc(Cl)c2)C(=O)c2ccccc2S3(=O)=O)CC1 as the molecule, how does the AC50 read?
A: The AC50 was 20 µM [rising, partial curve, poor fit].

Q: Which AC50 does the source give for CCOC(=O)c1snc(-c2ccc(F)cc2)c1N here?
A: Its AC50 is 0.631 µM [rising, full curve, poor fit].

Q: Which AC50 does the source give for Clc1ccc(OCc2nc(-c3ccccn3)n[nH]2)cc1 here?
A: Its AC50 is 15.8 µM [falling, partial curve].

Q: With NC(=O)Cn1c(=O)n(CCCCCC(=O)NCc2ccccc2Cl)c(=O)c2sccc21 as the molecule, how does the AC50 read?
A: Its AC50 is 0.1 µM [rising, full curve, poor fit].

Q: For COC(=O)c1c(-c2cccs2)csc1NC(=O)COc1ccccc1, which AC50 is on record?
A: Its AC50 is 2 µM [rising, partial curve].

Q: Which AC50 does the source give for CC(CNC(=O)c1ccc(Nc2nc3ccccc3n3nnnc23)cc1)c1ccccc1 (stereo not drawn) here?
A: The AC50 was 7.94 µM [falling, partial curve].

Q: Which AC50 does the source give for CCC(C(=O)NCCc1ccc(SC)cc1)n1nc(C)c2c(C)n(-c3ccc(C)cc3)nc2c1=O (stereo not drawn) here?
A: Its AC50 is 31.6 µM [falling, partial curve].

Q: Which AC50 does the source give for COc1cc(C2CC(=O)N(CC(=O)Nc3ccccc3F)c3ccccc3S2)cc(OC)c1OC (stereo not drawn) here?
A: The AC50 was 20 µM [falling, partial curve].

Q: With O=C(Nc1ccc(F)cc1F)c1cc(-c2ccc3c(c2)OCO3)on1 as the molecule, how does the AC50 read?
A: Its AC50 is 10 µM [falling, partial curve].

Q: For Cc1cc(C)cc(OCc2ccc(C(=O)O)o2)c1, which AC50 is on record?
A: Its AC50 is 15.8 µM [falling, partial curve].

Q: With Cc1ccc(CCNC(=O)c2ccc(CSc3nc4ccncc4n3Cc3ccc(F)cc3)cc2)cc1 as the molecule, how does the AC50 read?
A: Its AC50 is 12.6 µM [falling, partial curve].

Q: For COC(=O)c1ccccc1NC(=O)CCc1c(C)nc2cc(-c3ccc(Cl)cc3)nn2c1C, which AC50 is on record?
A: The AC50 was 0.0251 µM [falling, full curve].

Q: With Cc1cccc(OCC(=O)Nc2cccc(-c3nc4ccccc4s3)c2)c1 as the molecule, how does the AC50 read?
A: The AC50 was 6.31 µM [falling, partial curve].

Q: With CC(=O)c1cc(-c2ccc(F)cc2)n(CCC(=O)NC2CCCCC2)c1C as the molecule, how does the AC50 read?
A: The AC50 was 3.16 µM [rising, single point].

Q: Which AC50 does the source give for Cc1cccc(N=c2oc3cc(O)ccc3cc2C(N)=O)c1 here?
A: The AC50 was 0.00794 µM [falling, full curve].

Q: With CC(C)CNc1cc(NC2CCCCC2)c2c3c(onc13)-c1ccccc1C2=O as the molecule, how does the AC50 read?
A: Its AC50 is 25.1 µM [falling, partial curve, poor fit].

Q: With Cc1ccc(Cl)cc1N1CCN(C(=O)c2cn(C)c3ccc(S(=O)(=O)N4CCCCC4)cc3c2=O)CC1 as the molecule, how does the AC50 read?
A: The AC50 was 20 µM [falling, single point].
